Experimental data reported in publication doi:10.1101/2023.01.31.526442.
Results are given in words; binding and its absence hold for the method and conditions named. In cells and extracts the contact can be indirect. Some entries that bind do so weakly or less than the wild type.

The chains behind the UniProt entries cited, without tags or fusion partners.
UniProt O60260: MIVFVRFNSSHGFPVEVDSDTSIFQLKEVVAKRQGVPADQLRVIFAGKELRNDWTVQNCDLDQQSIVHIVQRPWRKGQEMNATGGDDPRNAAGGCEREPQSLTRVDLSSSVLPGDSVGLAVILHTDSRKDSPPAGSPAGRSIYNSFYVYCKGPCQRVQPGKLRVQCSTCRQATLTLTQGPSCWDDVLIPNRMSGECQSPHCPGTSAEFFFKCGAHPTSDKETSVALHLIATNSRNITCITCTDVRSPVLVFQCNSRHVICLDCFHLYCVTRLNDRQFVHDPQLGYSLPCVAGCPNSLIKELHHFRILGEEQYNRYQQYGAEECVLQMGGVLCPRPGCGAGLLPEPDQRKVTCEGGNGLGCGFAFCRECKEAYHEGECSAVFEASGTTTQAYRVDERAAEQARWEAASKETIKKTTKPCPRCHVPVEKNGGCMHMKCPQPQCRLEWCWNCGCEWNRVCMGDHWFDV
UniProt Q9BQQ3: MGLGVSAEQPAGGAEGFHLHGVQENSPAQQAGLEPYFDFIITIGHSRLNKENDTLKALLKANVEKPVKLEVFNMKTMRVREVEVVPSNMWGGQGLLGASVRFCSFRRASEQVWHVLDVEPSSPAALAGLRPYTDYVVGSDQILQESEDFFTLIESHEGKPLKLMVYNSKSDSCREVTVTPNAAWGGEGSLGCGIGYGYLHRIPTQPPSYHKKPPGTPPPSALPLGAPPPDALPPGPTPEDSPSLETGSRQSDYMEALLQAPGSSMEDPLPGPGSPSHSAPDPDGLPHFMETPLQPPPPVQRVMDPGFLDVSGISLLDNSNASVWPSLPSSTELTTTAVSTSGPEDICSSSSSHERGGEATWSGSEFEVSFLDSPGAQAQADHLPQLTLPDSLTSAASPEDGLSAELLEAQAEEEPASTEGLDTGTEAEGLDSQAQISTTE

How the values were obtained:
[1] = target: YFP-Parkin, expressed in HeLa cells (UniProt O60260); assay: proximity ligation
[2] = target: T1, GM130 (human (endogenous in HeLa)) (UniProt Q08379); assay: proximity ligation
T1 sequence: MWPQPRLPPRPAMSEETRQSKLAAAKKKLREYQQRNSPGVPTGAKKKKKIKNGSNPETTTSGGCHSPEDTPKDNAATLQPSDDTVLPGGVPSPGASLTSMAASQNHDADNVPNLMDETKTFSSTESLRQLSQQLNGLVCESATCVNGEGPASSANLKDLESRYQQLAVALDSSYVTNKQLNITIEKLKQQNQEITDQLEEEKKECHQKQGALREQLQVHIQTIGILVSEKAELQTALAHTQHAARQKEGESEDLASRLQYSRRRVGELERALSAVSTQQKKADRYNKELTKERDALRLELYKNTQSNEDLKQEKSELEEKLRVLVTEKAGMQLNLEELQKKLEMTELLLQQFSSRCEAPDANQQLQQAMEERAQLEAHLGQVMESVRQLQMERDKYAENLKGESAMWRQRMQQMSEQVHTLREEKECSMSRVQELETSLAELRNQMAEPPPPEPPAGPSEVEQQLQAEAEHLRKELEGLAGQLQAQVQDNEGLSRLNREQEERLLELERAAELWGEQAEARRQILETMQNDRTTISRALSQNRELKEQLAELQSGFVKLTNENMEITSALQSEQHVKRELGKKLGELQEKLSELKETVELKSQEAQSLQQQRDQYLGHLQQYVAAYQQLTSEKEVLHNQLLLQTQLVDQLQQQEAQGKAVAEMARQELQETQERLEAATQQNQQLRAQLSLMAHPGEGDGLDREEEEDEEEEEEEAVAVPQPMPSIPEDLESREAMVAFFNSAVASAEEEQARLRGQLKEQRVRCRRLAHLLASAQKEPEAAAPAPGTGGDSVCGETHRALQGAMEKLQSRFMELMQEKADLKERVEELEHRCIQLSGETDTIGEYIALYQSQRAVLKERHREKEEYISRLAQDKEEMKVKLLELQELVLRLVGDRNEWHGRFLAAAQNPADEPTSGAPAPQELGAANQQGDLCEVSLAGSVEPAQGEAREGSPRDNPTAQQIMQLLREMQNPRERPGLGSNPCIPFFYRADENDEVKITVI

binding [1]: no binding | binding [2]: binds
Substance: GRASP65 (from UniProt Q9BQQ3 1-440)
